Data: PubChem BioAssay AID2685 (National Center for Advancing Translational Sciences (NCATS), 2010)
Out of some 320,000 compounds screened, about 2,100 (0.66%) were called active. This list was built around the results that the source calls inconclusive (neither active nor inactive); the mix of calls is not that of the screen. Calls come from the whole dose curve; as a rule, active = well fitted inhibition curve with a large enough effect in the signal ratio, with a control signal flat (not every such curve was filed as active); inconclusive = small, poorly fitted or top-dose-only effect, or effect the other way, or a change in a side signal; inactive = flat fitted curve, though single readings scatter; the % refers to the signal ratio. Potencies of inconclusive entries are doubtful fits and often do not repeat.
% is set by controls: 0 for no effect and ±100 for the full control effect; potency is the fitted concentration of half-maximal effect.

Experiment: qHTS Assay for Lipid Storage Modulators in Drosophila S3 Cells
Conditions: BODIPY lipid droplet fluorescence, 18-24 h, cells fed with added oleic acid; lipid storage change, negative = inhibition: at 46.1 µM (top of the series) unless noted
Summary of the method: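 Laser-scanning cytometry quantifies lipid droplet accumulation (500–530 nm total intensity; droplet/cell object ratio) in oleic acid-fed (400 uM added) Drosophila S3 cells treated with a concentration series. 20 uM Triacsin C defined 100% inhibition.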
For O=S(=O)(NCc1ccccc1)c1ccc(NC(=S)NCc2ccco2)cc1, the lipid storage change, negative = inhibition was inconclusive: -7.54%. With COc1ccccc1/C=C1\SC(=S)N(N2C(=O)CCCC2=O)C1=O the lipid storage change, negative = inhibition was inconclusive: -2.68% [at 9.22 µM]. For Cc1ccc(-n2nc3c(c2NC(=O)CC(C)C)CS(=O)C3)cc1 (centres undefined), the lipid storage change, negative = inhibition was “inactive”. For COC(=O)NNC(=O)c1ccccc1C, the Potency was active: 25.9 µM. With CCN(CC(=O)Nc1ccc(Br)cc1)C(=O)Cc1cccc(F)c1 the lipid storage change, negative = inhibition was inconclusive: 68.5%. For CC(=O)Nc1ccc(/C=N/Nc2nc3ccccc3[nH]2)cc1, the lipid storage change, negative = inhibition was inconclusive: -21.7%. With Cn1cccc1C(=O)OCc1csc(-c2ccccc2)n1 the lipid storage change, negative = inhibition was inconclusive: -33.6%. With CC(C)Cc1cc(C(=O)NCCc2ccccc2)no1 the lipid storage change, negative = inhibition was inconclusive: -27.9%. For COc1ccc(NC(=O)c2cc3c(CO)cnc(C)c3oc2=Nc2cccc(C)c2)c(OC)c1, the lipid storage change, negative = inhibition was inconclusive: -132%. For COc1ccc(N2CCN(C(CNC(=O)C(=O)NCc3cccs3)c3ccco3)CC2)cc1 (centres undefined), the lipid storage change, negative = inhibition was inconclusive: -38.5%. For O=C(CN1C(=O)c2cccnc2Oc2ccc(Cl)cc21)NC1CCCC1, the lipid storage change, negative = inhibition was inconclusive: -9.52%. For O=C(CCN1CCOCC1)NC1CCCN(Cc2ccccc2F)C1 (centres undefined), the lipid storage change, negative = inhibition was inconclusive: -13.8%. In the case of COc1ccccc1C(=O)Nc1cccc(NC(=O)c2ccccc2OC)n1, the lipid storage change, negative = inhibition is reported as inconclusive: -48.1%. For CC(C)OP(=O)(OC(C)C)C(Nc1ccccc1)c1cccnc1 (centres undefined), the lipid storage change, negative = inhibition was inconclusive: -5.86%. For CCc1cc2c(=O)c(-c3ccc(F)cc3)c(C(F)(F)F)oc2cc1OCC(=O)O, the Potency was inconclusive: 29.1 µM [rising, single point]. In the case of CNc1nc(N)c([N+](=O)[O-])c(Nc2ccccc2OC)n1, the lipid storage change, negative = inhibition is reported as “inactive”. With CCN1CCCC1CNC(=O)CN(C)S(=O)(=O)c1ccc(Cl)cc1 (centres undefined) the lipid storage change, negative = inhibition was inconclusive: 135%. For Cc1c(NC(=O)CCC(=O)N2CCCCC2)c(=O)n(-c2ccccc2)n1C, the Potency was inconclusive: 29.1 µM [falling, single point]. For COc1ccc(/C=C/c2nnc(NC(=O)COc3cccc(C)c3)s2)cc1, the lipid storage change, negative = inhibition was inconclusive: 96.1%. With O=C(O)CCSc1nc2ccc(Br)cc2[nH]1 the lipid storage change, negative = inhibition was inconclusive: 57.4%. For N#CCCN1CCN(C(=S)c2ccc(-c3cc(Cl)ccc3Cl)o2)CC1, the lipid storage change, negative = inhibition was inconclusive: 10.8%. For O=C1/C(=C/c2cccc(F)c2)Oc2cc(O)ccc21, the Potency was inconclusive: 29.1 µM [falling, single point]. For OCCCc1nc2ccccc2n1CCOc1ccccc1, the lipid storage change, negative = inhibition was inconclusive: 20.6%. With Cc1cc(C)nc(Nc2ncc(O)n2-c2ccc(Br)cc2)n1 the lipid storage change, negative = inhibition was inconclusive: -0.0839%. In the case of COc1ccccc1CNC(=O)N1CCN(c2ccccc2Cl)CC1, the lipid storage change, negative = inhibition is reported as inconclusive: 23.4%. In the case of CCCc1cc(=O)[nH]c(SCc2nc3ccccc3o2)n1, the lipid storage change, negative = inhibition is reported as inconclusive: -17.3%. For Cc1cccc(-c2nc(CS(=O)CC(=O)NCc3cccs3)c(C)o2)c1 (centres undefined), the lipid storage change, negative = inhibition was inconclusive: 50.5%. In the case of C=CCCC(=O)Nc1nc(C)c(-c2csc(Nc3ccc(Cl)cc3Cl)n2)s1, the lipid storage change, negative = inhibition is reported as inconclusive: -14%. For CCOC(=O)c1ccc(S(=O)(=O)NNC(=O)COc2ccc(C)cc2)cc1, the lipid storage change, negative = inhibition was inconclusive: 13.2%. In the case of CC(C)(C)NC(=O)Cn1nc(C(F)(F)F)c2c1CCCC2, the lipid storage change, negative = inhibition is reported as inconclusive: 2.24%. With COc1ccc(S(=O)(=O)NC(C)c2ccccc2)cc1C(=O)N1CCCCC1 (centres undefined) the lipid storage change, negative = inhibition was inconclusive: -19.4%. For CNC(=S)NNC(=O)Cc1ccc(O)cc1, the lipid storage change, negative = inhibition was inconclusive: -4.34%. In the case of CN(c1ccccc1)S(=O)(=O)c1ccc(Cl)c(C(=O)NCC(c2ccco2)N2CCCC2)c1 (centres undefined), the lipid storage change, negative = inhibition is reported as inconclusive: 19.7%. In the case of Cc1cccc(Nc2cc(=O)[nH]c(=O)[nH]2)c1, the lipid storage change, negative = inhibition is reported as inconclusive: 6.68%. In the case of COc1ccc(CNC(=O)CN2C(=O)C(c3ccccc3)Oc3cccnc32)cc1 (centres undefined), the lipid storage change, negative = inhibition is reported as inconclusive: -3.7%. With CCOC(=O)c1c(NC(=O)C(=O)N/N=C/c2ccccc2OC)sc2c1CCCCC2 the lipid storage change, negative = inhibition was inconclusive: 13.6%. With CC(=O)Nc1ccc(S(=O)(=O)NCCC(=O)OCc2nc(N)nc(Nc3ccccc3C)n2)cc1 the lipid storage change, negative = inhibition was “inactive”. With COc1ccc(NC(=O)COc2ncnc3ccccc23)cc1S(=O)(=O)N1CCOCC1 the lipid storage change, negative = inhibition was inconclusive: 81.2%. In the case of O=C(CSc1nc2ccccc2[nH]1)Nc1ccc(F)c(F)c1, the lipid storage change, negative = inhibition is reported as inconclusive: 2.82%. With c1nc2sc3c(c2c2nnnn12)CCCC3 the lipid storage change, negative = inhibition was inconclusive: 91.5%. For Cc1nc(NC(=O)CN(C)S(=O)(=O)c2ccc(Br)cc2)sc1C, the lipid storage change, negative = inhibition was inconclusive: -2.55%. For Cc1c(Cl)cccc1NC(=O)CSc1nncn1-c1ccccn1, the lipid storage change, negative = inhibition was inconclusive: -18.4%. With O=C(Cc1cc(=O)[nH][nH]1)N/N=C/c1c(F)cccc1Cl the lipid storage change, negative = inhibition was inconclusive: 0.582%. For CC1CCCN(S(=O)(=O)c2ccc(C(=O)Nc3nnc(C4=COCCO4)o3)cc2)C1 (centres undefined), the Potency was inconclusive: 11.6 µM [falling, single point]. With Cc1ccc(S(=O)(=O)N2CCN(C(=O)c3ccccc3)C2)cc1[N+](=O)[O-] the lipid storage change, negative = inhibition was inconclusive: 4.77%. For O=C(CN1CCCCC1)Nc1nc(-c2ccc(Cl)cc2)cs1, the lipid storage change, negative = inhibition was inconclusive: 9.49%. For NC(=O)CC(NC(=O)c1ccccc1)c1ccc(N2CCC(Br)CC2)c([N+](=O)[O-])c1 (centres undefined), the lipid storage change, negative = inhibition was inconclusive: -27.3%. With CCC(C)[C@H](NC(=O)N1CCn2c1nc1ccccc12)C(=O)NCCc1ccccc1 (some centres undefined) the lipid storage change, negative = inhibition was inconclusive: -61.2%. In the case of O=[N+]([O-])c1cccc2ccc(N3CCOCC3)nc12, the Potency is reported as inconclusive: 2.31 µM [falling, partial curve]. With O=C(Nc1ccc([N+](=O)[O-])cc1)Nc1ccon1 the Potency was inconclusive: 7.31 µM [falling, single point]. With CCCN(CCC)Cc1c(C(=O)OCC)nnn1-c1nonc1N the lipid storage change, negative = inhibition was inconclusive: 9.21%. With Cn1c(Cc2nc3ccccc3n2C)nc2ccccc21 the lipid storage change, negative = inhibition was inconclusive: 30.5%. In the case of COc1ccccc1/C=C/C=N\N1CCN(Cc2ccccc2Cl)CC1, the Potency is reported as inconclusive: 14.6 µM [activator, partial curve]. With O=C(CC1C(=O)NC2CCCCC2N1C(=O)c1ccc(F)cc1)Nc1ccccc1 (centres undefined) the Potency was active: 29.1 µM.
